From the supplement of paper PMC7238544
Counter-ions that a name gives are not always drawn. ± gives the standard deviation of the averaged measurements. The list shows a part of the results. The data scatter; read single values as rough.

What was measured:
hAMSC donor 1 [1] = experiment: Hoechst total cell count ratio vs vehicle control; higher = more cells (less toxicity)
hAMSC donor 2 [2] = experiment: as above
hAMSC donor 1 [3] = experiment: transgenic luciferase activity (RLU/mg protein) fold change vs vehicle control (ratio); higher = more transgene expression
hAMSC donor 2 [4] = experiment: as above
hAMSC donor 1 [5] = experiment: transfection efficiency (EGFP+ cells / Hoechst count) fold change vs vehicle control (ratio); hAMSC are human adipose-derived mesenchymal stem cells given an EGFP-luciferase plasmid by lipofection; higher = enhanced transfection
hAMSC donor 2 [6] = experiment: as above
[7] = priming compound concentration 0.2 µM
[8] = priming compound concentration 1.7 µM
[9] = priming compound concentration 13 µM

| SMILES | Hoechst total cell count ratio (hAMSC donor 1 [1]; [7]) | Hoechst total cell count ratio (hAMSC donor 1 [1]; [8]) | Hoechst total cell count ratio (hAMSC donor 1 [1]; [9]) | Hoechst total cell count ratio (hAMSC donor 2 [2]; [7]) | Hoechst total cell count ratio (hAMSC donor 2 [2]; [8]) | Hoechst total cell count ratio (hAMSC donor 2 [2]; [9]) | transgenic luciferase activity (hAMSC donor 1 [3]; [8]) | transgenic luciferase activity (hAMSC donor 2 [4]; [7]) | transgenic luciferase activity (hAMSC donor 2 [4]; [8]) | transgenic luciferase activity (hAMSC donor 2 [4]; [9]) | transfection efficiency (hAMSC donor 1 [5]; [7]) | transfection efficiency (hAMSC donor 1 [5]; [8]) | transfection efficiency (hAMSC donor 1 [5]; [9]) | transfection efficiency (hAMSC donor 2 [6]; [7]) | transfection efficiency (hAMSC donor 2 [6]; [8]) | transfection efficiency (hAMSC donor 2 [6]; [9]) | transgenic luciferase activity (hAMSC donor 1 [3]; [7]) | transgenic luciferase activity (hAMSC donor 1 [3]; [9]) |
| --- | --- | --- | --- | --- | --- | --- | --- | --- | --- | --- | --- | --- | --- | --- | --- | --- | --- | --- |
| Clc1ccc2nsnc2c1NC1=NCCN1 [Tizanidine hydrochloride] | 0.953 ± 0.032 | 1.08 ± 0.1 | 0.986 ± 0.06 | 0.941 ± 0.33 | 1.3 ± 0.17 | 2.08 ± 0.64 | 2.55 ± 0.74 | 0.41 ± 0.059 | 0.741 ± 0.12 | 0.0764 ± 0.011 | 1.1 ± 0.21 | 0.843 ± 0.14 | 0.848 ± 0.07 | 1.29 ± 0.13 | 1.19 ± 0.047 | 1.13 ± 0.23 | – | – |
| C[C@]12CCC(=O)C=C1CC[C@@H]1[C@@H]2[C@@H](O)C[C@@]2(C)[C@H]1CC[C@]2(O)C(=O)COC(=O)CCC(=O)O [Hydrocortisone hemisuccinate] | 1.12 ± 0.072 | 1.34 ± 0.26 | 1.34 ± 0.14 | 1.14 ± 0.074 | 0.776 ± 0.06 | 0.965 ± 0.22 | 1.73 ± 0.56 | – | 0.677 ± 0.068 | 0.946 ± 0.21 | 1.35 ± 0.34 | 1.78 ± 0.27 | 1.15 ± 0.26 | 0.849 ± 0.22 | 1.46 ± 0.14 | 1.37 ± 0.084 | 0.723 ± 0.3 | – |
| CC(=O)SCC(Cc1ccccc1)C(=O)NCC(=O)OCc1ccccc1 (centres undefined) [Racecadotril] | 1.05 ± 0.14 | 1.17 ± 0.05 | 1.11 ± 0.18 | 1.52 ± 0.53 | 1.37 ± 0.056 | 2.13 ± 0.36 | 1.47 ± 0.21 | 0.407 ± 0.025 | 0.266 ± 0.0087 | 0.107 ± 0.05 | 0.969 ± 0.33 | 1.41 ± 0.11 | 0.923 ± 0.49 | 0.856 ± 0.17 | 1.03 ± 0.041 | 1.04 ± 0.31 | – | – |
| Cc1ccc(C)c(OCCCC(C)(C)C(=O)O)c1 [Gemfibrozil] | 1.25 ± 0.23 | 1.38 ± 0.2 | 1.26 ± 0.16 | 1.21 ± 0.12 | 0.907 ± 0.26 | 1.03 ± 0.16 | – | 0.666 ± 0.08 | 0.345 ± 0.079 | – | 1.36 ± 0.59 | 1.05 ± 0.22 | 1.47 ± 0.071 | 0.879 ± 0.099 | 1.2 ± 0.16 | 1.27 ± 0.21 | 0.508 ± 0.1 | 6.95 ± 2.3 |
| CC(C)Cc1ccc(C(C)C(=O)O)cc1 (centres undefined) [Ibuprofen] | 0.91 ± 0.09 | 0.988 ± 0.08 | 0.826 ± 0.09 | 1.18 ± 0.49 | 1.3 ± 0.21 | 1.19 ± 0.37 | 1.79 ± 1 | 0.714 ± 0.098 | 2.72 ± 1.8 | 0.488 ± 0.28 | 0.926 ± 0.19 | 0.954 ± 0.14 | 0.895 ± 0.23 | 1.46 ± 0.31 | 0.938 ± 0.071 | 1.19 ± 0.24 | – | – |
| CCc1c(C)[nH]c2c1C(=O)C(CN1CCOCC1)CC2 (centres undefined) [Molindone hydrochloride] | 1.13 ± 0.073 | 1.31 ± 0.066 | 1.26 ± 0.24 | 1.17 ± 0.094 | 0.833 ± 0.093 | 0.85 ± 0.12 | 0.937 ± 0.24 | – | 0.563 ± 0.077 | 0.436 ± 0.07 | 1.23 ± 0.22 | 1.38 ± 0.14 | 1.15 ± 0.19 | 0.829 ± 0.07 | 1.47 ± 0.17 | 1.34 ± 0.083 | 0.607 ± 0.098 | – |
| CC(C)[N+]1(C)[C@@H]2CC[C@H]1C[C@@H](OC(=O)C(CO)c1ccccc1)C2 (some centres undefined) [Ipratropium bromide] | 1.5 ± 0.13 | 1.15 ± 0.24 | 1 ± 0.037 | 0.828 ± 0.12 | 1.09 ± 0.092 | 1.36 ± 0.24 | 0.345 ± 0.15 | – | 0.554 ± 0.037 | 0.345 ± 0.11 | 1.07 ± 0.32 | 0.975 ± 0.19 | 1.72 ± 0.14 | 1.4 ± 0.23 | 1.14 ± 0.039 | 1.04 ± 0.073 | – | 0.804 ± 0.13 |
| CN(C)c1ccc(O)c2c1C[C@H]1C[C@H]3[C@H](N(C)C)C(O)=C(C(N)=O)C(=O)[C@@]3(O)C(O)=C1C2=O [Minocycline hydrochloride] | 1.32 ± 0.15 | 1.17 ± 0.27 | 0.967 ± 0.055 | 0.889 ± 0.4 | 1.09 ± 0.41 | 0.976 ± 0.18 | 0.604 ± 0.42 | – | 0.57 ± 0.14 | 0.431 ± 0.11 | 0.958 ± 0.17 | 1.04 ± 0.45 | 1.56 ± 0.36 | 1.44 ± 0.34 | 1.34 ± 0.46 | 1.3 ± 0.59 | – | 1.41 ± 0.59 |
| COC1=C(OC)C(=O)C(CCCCCCCCCCO)=C(C)C1=O [Idebenone] | 1.08 ± 0.14 | 0.779 ± 0.11 | 0.988 ± 0.2 | 0.875 ± 0.31 | 0.676 ± 0.038 | 1.42 ± 0.1 | 0.163 ± 0.065 | – | 0.627 ± 0.024 | 0.552 ± 0.21 | 1.46 ± 0.61 | 1.36 ± 0.39 | 1.22 ± 0.2 | 1.25 ± 0.039 | 0.933 ± 0.16 | 1.17 ± 0.28 | – | 0.788 ± 0.2 |
| Cc1ccc(Cl)c(Nc2ccccc2C(=O)O)c1Cl [Meclofenamic acid sodium salt] | 1.19 ± 0.15 | 1.44 ± 0.14 | 1.15 ± 0.069 | 1.17 ± 0.25 | 0.868 ± 0.026 | 1.32 ± 0.4 | – | 0.876 ± 0.15 | 0.783 ± 0.38 | – | 1.73 ± 0.076 | 1.31 ± 0.3 | 0.949 ± 0.15 | 1.07 ± 0.11 | 1.22 ± 0.059 | 0.961 ± 0.21 | 0.629 ± 0.45 | 1.48 ± 1.2 |
| CN/C(=N\CCSCc1nc[nH]c1C)NC#N [Cimetidine] | 1.16 ± 0.078 | 1.33 ± 0.25 | 1.35 ± 0.21 | 1.29 ± 0.09 | 0.772 ± 0.042 | 1.08 ± 0.16 | – | 0.766 ± 0.071 | 0.376 ± 0.051 | – | 1.23 ± 0.45 | 1.14 ± 0.14 | 1.52 ± 0.45 | 0.885 ± 0.045 | 1.67 ± 0.32 | 1.15 ± 0.2 | 0.385 ± 0.26 | 9.9 ± 1.6 |
| C[C@@](Cc1ccc(O)c(O)c1)(NN)C(=O)O [Carbidopa] | 1.06 ± 0.11 | 1.19 ± 0.024 | 0.901 ± 0.2 | 0.773 ± 0.26 | 1.37 ± 0.065 | 1.31 ± 0.23 | 0.858 ± 0.48 | – | 0.534 ± 0.039 | 0.331 ± 0.007 | 1.15 ± 0.058 | 1.24 ± 0.35 | 1.88 ± 0.6 | 1.31 ± 0.17 | 1.03 ± 0.25 | 0.953 ± 0.088 | – | 1.02 ± 0.39 |
| O=C1CN(/N=C/c2ccc([N+](=O)[O-])o2)C(=O)N1 [Nitrofurantoin] | 1.19 ± 0.15 | 1.12 ± 0.093 | 1.29 ± 0.082 | 1.19 ± 0.06 | 0.779 ± 0.042 | 0.829 ± 0.094 | 0.285 ± 0.18 | – | 1.76 ± 0.58 | 0.38 ± 0.051 | 1.1 ± 0.2 | 1.091 ± 0.0066 | 0.91 ± 0.1 | 1.1 ± 0.3 | 1.14 ± 0.27 | 1.01 ± 0.23 | 0.478 ± 0.072 | – |
| CC[C@H](C)C(=O)O[C@H]1C[C@@H](C)C=C2C=C[C@H](C)[C@H](CC[C@@H]3C[C@@H](O)CC(=O)O3)[C@H]21 [Lovastatin] | 0.986 ± 0.2 | 0.874 ± 0.24 | 1.03 ± 0.12 | 1.09 ± 0.05 | 0.99 ± 0.042 | 0.965 ± 0.083 | – | 0.788 ± 0.17 | 0.964 ± 0.05 | 0.827 ± 0.22 | 0.964 ± 0.14 | 1.09 ± 0.6 | 1.19 ± 0.15 | 1.11 ± 0.1 | 1.13 ± 0.1 | 1.26 ± 0.09 | – | 0.67 ± 0.12 |
